The experiment deals with T1, MecA with C-terminal tandem affinity purification (TAP) tag (3x HA + FLAG) (S. mutans) (UniProt Q8DW33).
T1 sequence: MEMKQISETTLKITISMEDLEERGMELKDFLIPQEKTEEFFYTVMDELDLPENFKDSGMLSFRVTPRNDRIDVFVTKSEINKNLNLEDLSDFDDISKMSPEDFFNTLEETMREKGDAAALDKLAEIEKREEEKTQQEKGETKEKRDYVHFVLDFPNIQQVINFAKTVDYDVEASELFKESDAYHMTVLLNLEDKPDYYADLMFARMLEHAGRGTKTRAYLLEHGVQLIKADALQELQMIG
Kind of experiment: affinity purification with mass spectrometry; MecA with C-terminal TAP tag (3x HA + FLAG) as bait; S. mutans grown to mid-logarithmic phase, formaldehyde crosslinked; anti-FLAG affinity resin, then anti-HA affinity resin; LC-MS/MS; three experiments; >=2-fold enrichment of spectral counts over the untagged wild type.

Results are given in words; binding and its absence hold for the method and conditions named. In cells and extracts the contact can be indirect. Here binding means that the protein was enriched with, or labelled near, the bait; the list need not be complete. Tags and fused reporters may be left off the sequences shown.

B1: Aspartate kinase, Akh (protein, UniProt Q8DSM8 1-452)
chain: MKVVKFGGSSLASATQLEKVLNIIKSDEERRFVVVSAPGKRDAQDTKVTDALIRYYRSYTSDKDVTADQSWIINRYRAIIDELGLGQNILEKITKAIVDLANLPIEDNDFLYDTFLAAGEDNNAKLIAEYFRKNGLSARYIHPKKAGIIVTSEPGNARIIPSSYDKLEELRDSDEVLVIPGFFGVTIDNQICTFSRGGSDITGSIVAAGVKADLYENFTDVDGIFAAHPGVVHKPHSISELTYREMRELAYAGFSVLHDEALIPAYRGKIPLVIKNTNNPEHPGTKIVLAHTGATIPVVGIAGDDDFVSINLSKYLMNREIGFGRKILQVLEELNIRWEHIPTGIDDMSIILRGRELTPIKEQEIISQLTRKLEVDEVEIERNLSIIMIVGENMKNHIGVTAKAAEAFSKKHINLEMISQGSSEVSVMFVIKTEQEKQAVRALYQTFFMKDE
With B1, the binding result was “binds”.

B2: 2-isopropylmalate synthase, LeuA (protein, UniProt Q8DTG2 1-521)
chain: MRKVEFLDTTLRDGEQTPGVNFSIKEKVAIAKQLEKWGISDIEAGFPAASPDSFEAVKQIAAAMTTTAVSGLARSVKSDIDACYEALKDAKFPQCHVFIATSPIHREFKLKKSKEEILEVIKEHVTYARSKFDVIEFSPEDATRTELDFLLQVVQTAVDAGATYINIPDTVGFTTPVEFGHIFKYLIENVKSDRDIIFSPHCHDDLGMATANTLAAIKNGAGRVEGTVNGIGERAGNVALEEVAVALNIREDYYDATSAIVLDETVTTSEMVSRFSGIPIPKNKAVVGGNAFSHESGIHQDGFLKNPLTYEIITPELVGVKKSSLPLGKLSGRHAFIEKLKELKLDFEEGEVAPLFAKFKSLADKKHDITDADIRALVAGTSVENPEGFHFKDLRLTSNDDDTITAQVIMVNEGEEEVTIIANGKGSVEAIFNAVDKFFNQTVKLDSYNIEAVTDGIDAQARVLVSVENIDTDTIFNASGLDFDVLKASAIAYINANTFVQKENAGEIGHKVSERDYPSND
In the case of B2, the binding entry is given as “binds”.

B3: DNA primase, DnaG (protein, UniProt Q8DUS6 1-592)
chain: MVVDKEKIKEIKDSINIVDVIGEVVSLSRSGRNYLGLCPFHKEKTPSFNVIEDRQFFHCFGCGRSGDVFKFVEDYRNISFLESVQVLAERSGINVTLQDKSQEVKKEHPHQKLFNINGDANKFYQAVLKTTKVGETARQYLYERGLTDELITYFKIGLAPNEYDYLYQAMLKKYDEDTIINSGLFNLSDSNSIYDAFRNRIMFPLTDEFGHIIGFSGRIWTEEDTSKKLAKYKNTRSTIIFNKSYELYHLDKARTAAKKEHELYLMEGFMDVIAAYRAGIPNAVASMGTALTPEHVKHLRKFTKKVILTYDGDKAGQNAIAKSLNLLSNMAVEIVRIPGQMDPDEFIKENSEEELEKLLKQARISSAEFWIEHLKPENIDNLQAEIDYVEKIAKVIAASPSITAQNTYINKVAEFLPDFDYLQVEQAVNNERLQMRSQISEQESANQQVLIDLPVTKQLTALTKAESQLFHRLLHHDYLLNEFRNRAHFKFTTPELQELYQILKTNGEINAYDLSQLSNQLQETYYRVLEENLPEEIAEDEIRQIEDQIDKCLQRQEMRKQSKAIRESSNHGDVDTAVEGLAALIAQKRNME
Regarding B3, the binding result is recorded as “binds”.

B4: 50S ribosomal protein L4 (protein, UniProt Q8DS17 1-207)
chain: MANVKLFDQTGKEAGEVTLNDAIFGIEPNESVVFDVIISQRANLRQGTHAVKNRSAVSGGGRKPWRQKGTGRARQGSIRAPQWRGGGVVFGPTPRSYGYKLPQKVRRLALKSVYSAKVADEKFVAVDALSFEAPKTKEFATVLAALNVDSKVLVILEEGNQAAELSARNLPNVKVATAATASVLDIVNSDKLLVTKEAISNIEEVLA
With B4, the binding entry is given as “binds”.

B5: Acetolactate synthase large subunit, IlvB (protein, UniProt Q8DW45 1-567)
chain: MEKIYLENPKSGSEILLDTLANLGVKTIFGYPGGAVLPLYDAIYKQDNIRHILARHEQGAVHEAEGFAKSTGKLGVAIVTSGPGATNAITGIADAMSDSVPMLVFTGQVATPGIGKDAFQEADIIGITMPITKYNYQIRETADIPRIVTEAVHIATTGRPGPVVIDLPKDVSEKRVSSFNETTIKIPGYQPTIEPNNLQVKKILSQLKKAKKPLILAGGGVNYAGASAELIAFAERYKIPVVSTLLSLGVMPIEHPLSLGMGGMHGSYASNMALTECDFLINFGSRFADRLTGNPKTFAQKAVVAHVDIDPAEIGKVVKTAIPVVGDAKKTLKQLLESDKVSTRHREWTDKVLQDKAKAPFSYKFDQEVIKPQHAIETIGKLTKGDAIIITDVGQHQMWAAQFYPYKNERQIITSGGLGTMGFGIPAAVGAKLANPGKEVVLFVGDGGFQMTNQELAILNGYGVPIKLVLINNHSLGMVRQWQESFYDERRSESTFDDEPNFQLLAESYGISHYKLDNPLTLEKDLEVILENKPMLIEVDISNREHVYPMVPSGKSNAEMLGVTFNA
With B5, the binding entry is on record as “binds”.

B6: DNA topoisomerase IV subunit A, ParC (protein, UniProt Q8DTW6 1-818)
chain: MSNIQIMSLEDIMGERFGRYSKYIIQERALPDIRDGLKPVQRRILYSMNKDGNTYDKGYRKSAKSVGNVMGNFHPHGDSSIYDAMVRMSQDWKNRETLIEMHGNNGSMDGDPPAAMRYTEARLSEIADYLLQDIDKNTVAWAWNFDDTEKEPTVLPAAFPNLLVNGATGISAGYATDIPPHNLAEVIDTVVYLIDHPSAKLDKLMEFLPGPDFPTGAIIQGKDEIRKAYETGKGRVVVRSRTEIENLKGGKKQIVATEIPYEVNKAALVKKIDDVRLNNKVPGIAEVRDESDREGLRIAIELKKDADEQTILNYLFKYTDLQINYNFNMVAIDNYTPRQVGIIPMLTSYIAHRKDIIVARSKFDKEKAEKRLHIVEGLIRVISILDEVIALIRASENKADAKENLKISYDFSEEQAEAIVTLQLYRLTNTDIVTLENEEAELRERITTLNAIIGDERTMYNVMKRELREVKKKFGNPRLSELQAETQTIEIDTASLIVEEETYVSVTRGGYIKRTSPRSFNASTVEELGKRDDDDVIFIQNAKTTQELLIFTNLGNVIYRPIHELADIRWKEIGEHLSQNITNFATDEEILYVDLVDHFEEGTYYAATRLGQIKRFERRDLTPWRSYKSKAAKYAKLKGDDDQVIRISPIKLDDVMLITARGYALRFNIEEVPIVGPKAAGIKAINLKEGDSLATAFIANTDSIYILTQRGSLKRMTTNLIPVTSRAKRGLQVLRELKSKPHRVFAAGPVFSEAAGEIDLFTTVGEQGQEEILEIQSQSLEKYEVNLAELLLSERTSNGSFISDTISDQGVYAAKIKI
As for B6, the binding result was “binds”.

B7: Single-stranded-DNA-specific exonuclease, RecJ (protein, UniProt Q8DT92 1-734)
chain: MITSKYAWKINEKKPDDGFFELAKKENLNPTAAQILYERGFKTSKDIEAFLRPDLSQLHDPFLLNDMDKAVTRIRRAIETNERILIYGDYDADGMTSSSIAKEALEMLGAEVEAYLPNRFTDGYGPNLSVYKYFIEQQDISLILTVDNGIAGHDAIAYAQGQGVDVIVTDHHSMPAELPSAYAVVHPEHPDANYPFKCLAGCGVAFKLACALLESIPTEMLDLVAIGTIADMVSLTDENRVMVKYGLEILKQTERVGLQELIALAGVDFADINEETIGFKLAPQLNALGRLDDPNPAVELLTGFDDEEAKTIAAMINEKNEERKTIVQAIFEEAMTLVDENKSVQVLAKEGWHAGVLGIVAGRIMEQINQPVIVLNIENGLAKGSARSLESVNIFNALDAHRDLFMAFGGHAGAAGMTLEADKLEELSQVLNDYIQEHAIDLSQKSALVIDEELYLPELSLDTLKGLETLAPFGMNNKKPIFLLRDFTVKQVRTMGQNGAHLKLKVAQEQAVFDLLAFNYGSLVTEFQQAQHLELAVTLSVNRWNGNTSLQLMLVDARVEGIQLLDIRARNSALPDGVPFLEDQTDSKAVVLFEIPEKEEDLLALFENRDFEVIYFKNRIKHQYYLTGSGTREQFAKLYKTIYQFPEFDVRHKLKELSQFLKIPDILLVKMIQIFDELDFVSIDDGIMTVNKDAQKREISDSHIYQDLKKLVKFQELMALGTPQEIYEFLKRDR
B7: the binding entry was “binds”.

B8: Glycogen/starch/alpha-glucan phosphorylase, PhsG (protein, UniProt Q8DT55 1-798)
chain: MQLTKEKFIRDFKDTLHEEQLIKIPEATPTELFASLAKVVRKYYTPLWLERNRKISQNQQKVAYYFSIEFLPGRMLETNLLNLGILDTVKEGFAELGVNFEDVKNAEHDMALGNGGLGRLAAAFMDSLATTGYPGFGNGLRYKYGLFKQRIVDGYQVELPDSWFGSVGNVWETRKDHDAVEVKLFGNVYLQANERGRIVPVYDGAQILRAIPYDVPQIGFGNDNINNLRLWDVEIPEECELNYPTLESRRRVKNITAILYPDDSNYEGKELRLIQEYFMTSAGLQTIIKSYLKQGLPLERIHEKISVHINDTHPAVAPAEFMRLLIDEYDLEWDQAWETTVQTMSYTNHTILSEALEKWDAGLFKNVLPRVYQIILEIDNRFVAGLAQKGIDPQIIENTRIVKDNQIHMANLAIIGGHSVNGVAKLHTELLKEDTLHDFYTLYPGKFNNKTNGIVQRRWTQIAAPELSAALDQTIGNSWRTDIHELRKLNDFANDSAVLDHFYQVKQDAKAKLAAYIKESTGVEVSTDAIFDVQVKRLHAYKRQLLNVLHIVKLYWDLKDNPNLDMVPRVFIFGAKAAPGYHFAKSVIKIINELANLINSDESLQGKLKVVFLENYNVSLAELIIPAANVSEQISLASKEASGTSNMKFMMTGAVTLATLDGANIEIKDEVGDENIVIFGMTKDDVYRHYENHDYYSRGVYESNPVIKRVVDTFINGTIPNSQSEGTEIYEALITHNDEYFLLEDFIAYVQAQEKIDALYRDKETWSRMSLCNIANSDKFTSDDTITQYAKEIWHLEI
On to B8, for which the binding entry was “binds”.

B9: Dipeptidase PepV, PepV (protein, UniProt Q8DTT4 1-470)
chain: MFVDFQKEVDKRRGDILADLFRILQINSERDDSKADKKHPFGPGPVQALEHFLKMAERDGYETKNVNNYAGHFEYGQGDEVLGIFAHLDVVPAGSGWKTSPYLPEIINGKLYARGASDDKGPTIACYYGLKIIKELGLPVSKKVRFVVGTDEESGWADMDYYFEHVDMPEPDFGFSPDAYFPIINGEKGNITEYLHFGNSNGGSFILKSFKGGLRENMVPESATAVFSATICLAELQESLTAFTEQHALTADLKEEAGNFVLTLHGKSAHGSTPEAGINGATYLARFLSQFDFAGDAKAYLDLAANVLLDDHAGEKLGVAYKDEKMGSVSMNPGVFSFDSQSEDNSIALNFRYPQGTDAQTIKASLEQLSVSGVREVTLSEHEQKPHYVPMDDPLVATLLAVYEKHTGDKGHEWVIGGGTFGRLLKRGVAFGAMFPHSTDTMHQANEFVEVNDLYKAAAIYAEAIYELIK
As for B9, the binding entry is “binds”.

Source of the values: publication PMC10845952.
